Patent publication US5198425 (dated 1993)
HELM strings list residues between dots; [ac] is acetyl, [am] amide, other brackets name non-standard units.

Test: general procedure: peptide synthesis; Boc-Leu-CH2-PAB resin
Details: whole synthesis, analytical HPLC, trifluoroacetate

PEPTIDE1{[ac].T.D.D.L.S.N.F.Q.L}$$$$V2.0
final HPLC purity: at least 95%
